Measured values as given in PubChem BioAssay AID1347076 (National Center for Advancing Translational Sciences (NCATS), 2019).
The whole screen tested about 400,000 compounds, of which about 13,000 (3.2%) were called active. Inconclusive results, whose numbers are uncertain, are shown with a selection of clear calls. Calls come from the whole dose curve; as a rule, active = well fitted cell-killing curve with a large enough effect; inconclusive = small, poorly fitted or top-dose-only effect, or effect the other way; inactive = flat fitted curve, though single readings scatter. Where the call is inconclusive, the potency comes from a doubtful curve fit.

Test: qHTS assay for MDR1-selective chemotherapeutics: Primary screen using the drug-selected MDR subline cells KB-V1; note: nearly all actives have a fitted effect of over 60% in size
Conditions: KB-V1 MDR cells viability, CellTiter-Glo, 72 h; activity change, negative = cytotoxicity: at 46.1 µM (top of the series)
Procedure, shortened: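 qHTS viability screen in drug-selected KB-V1 MDR cells: 72 h compound treatment at 37 degrees C, ATP luminescence end point.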
% is set by controls: 0 for no effect and ±100 for the full control effect; potency is the fitted concentration of half-maximal effect.

Row | Structure (SMILES) | activity change, negative = cytotoxicity | Potency
1 | CC(C)(C)n1cnc2cc(NCc3ccc(Br)cc3)ccc21 | inactive: -23.1% | 
2 | COc1ccc(C)cc1NC(=O)Nc1ccccc1 |  | inconclusive: 25.9 µM [cytotoxic, single point]
3 | CCCC(=O)Nc1sc2c(c1C(=O)Nc1ccccn1)CCCC2 |  | inconclusive: 1.84 µM [cytotoxic, full curve]
4 | CCOC(=O)c1c(C)[nH]c(C(=O)NNC(=O)c2ccccc2F)c1C | inactive: -6.84% | 
5 | COc1cccc(COc2nc3c(c(=O)n(C)c(=O)n3C)n2C)c1 |  | inconclusive: 23.1 µM [cytotoxic, single point]
6 | Cc1cc(C(=O)OCC(=O)Nc2ccccc2Cl)c(C)o1 |  | inconclusive: 23.1 µM [cytotoxic, single point]
7 | COc1ccc(/C=N/n2cnnc2)cc1Br |  | inconclusive: 11.6 µM [cytotoxic, partial curve, poor fit]
8 | CCOC(=O)C1(CCCc2ccccc2)CCN(Cc2ccn[nH]2)CC1 |  | inconclusive: 32.6 µM [cytotoxic, single point]
9 | O=C(c1ccc(Cl)cc1)C(Cn1cncn1)C(Sc1ccccc1)c1ccccc1 (stereo not given) |  | inconclusive: 16.4 µM [cytotoxic, single point]
10 | CCOc1cc(/C=C/c2nc3ccccc3s2)ccc1OCC(=O)N1CCOCC1 |  | inconclusive: 16.4 µM [cytotoxic, single point]
11 | COc1ccc(-c2cc3nc(C)n(N)c(=O)c3s2)cc1 |  | active: 4.61 µM
12 | CCCOc1ccc(CNC(=O)c2cc3ccccn3n2)cc1 | inactive: 0.362% | 
13 | O=C(c1ccccc1)C1C(=O)c2ccccc2C1=O |  | inconclusive: 29.1 µM [cytotoxic, single point]
14 | CCOC(=O)C(C)On1c(-c2ccc(Cl)cc2)nc2ccc([N+](=O)[O-])cc21 (stereo not given) |  | inconclusive: 20.6 µM [cytotoxic, single point]
15 | CCn1cc2nc(SCc3cccc(C(F)(F)F)c3)n(Cc3ccc(C)cc3)c(=O)c2n1 |  | inconclusive: 20.6 µM [cytotoxic, single point]
16 | CC(=O)c1ccc(NC(=O)COC(=O)Cn2cnc3ccccc32)cc1 |  | inconclusive: 29.1 µM [rising, single point]
17 | COc1cc(OC)cc(-c2c(-c3cccs3)c3cc(-c4cnc(OC)nc4)ccc3n2C)c1 | inactive: -1.87% | 
18 | Cc1cccc(N2CCN(C(=S)c3ccc(-c4ccccc4[N+](=O)[O-])o3)CC2)c1 |  | inconclusive: 20.6 µM [cytotoxic, partial curve, poor fit]
19 | O=C(NCc1ccccc1Cl)C1=CC=CN2CCS(=O)(=O)N=C12 | inactive: -11.5% | 
20 | Cc1cc(C)c(S(=O)(=O)Nc2cccc(C(=O)O)c2)cc1S(=O)(=O)Nc1cccc(C(=O)O)c1 |  | inconclusive: 29.1 µM [rising, single point]
21 | Cc1ccccc1NC(=O)Cn1nnc(-c2ccc(CN3CCC(C)CC3)cc2)n1 |  | inconclusive: 2.31 µM [cytotoxic, full curve]
22 | COc1ccc(CCn2c(C)cc(C(=O)CCl)c2C)cc1OC |  | inconclusive: 29.1 µM [cytotoxic, single point]
23 | CS(=O)(=O)N1CCc2cc(NC(=O)c3ccc(Cl)cc3Cl)ccc21 |  | inconclusive: 18.4 µM [cytotoxic, single point]
24 | CC(C)C(=O)Nc1ccc(N2CCN(C(=O)c3cccs3)CC2)cc1 |  | inconclusive: 32.6 µM [cytotoxic, partial curve, poor fit]

Row | Structure (SMILES) | activity change, negative = cytotoxicity | Potency
25 | CN1CCN(c2oc(-c3cccs3)nc2S(=O)(=O)c2ccccc2)CC1 |  | active: 13 µM
26 | C=CCn1c(SCC(=O)NCc2ccccc2)nnc1-c1cc(Br)ccc1O |  | active: 11.6 µM
27 | CCn1nc2cc(C(=O)NCc3cc(C(F)(F)F)cc(C(F)(F)F)c3)ccc2c1OC |  | inconclusive: 29.1 µM [cytotoxic, single point]
28 | COc1cccc(NC(=O)CN(C)C(=O)c2ccc(OCC3CCCO3)cc2)c1 (stereo not given) | inactive: -26.7% | 
29 | Cc1cc[n+]2cc(-c3cccc([N+](=O)[O-])c3)c(-c3cccc([N+](=O)[O-])c3)cc2c1 | inactive: -12.1% | 
30 | Cc1cccc(-n2nc3c(c2NC(=O)c2cc4ccccc4o2)CS(=O)(=O)C3)c1 |  | inconclusive: 23.1 µM [cytotoxic, single point]
31 | Cc1ccc(S(=O)(=O)CCC(=O)OCC(=O)N(C)Cc2ccccc2)cc1 | inconclusive: 2.52% | 
32 | O=C(NCCC1CCCCN1S(=O)(=O)c1cccs1)C(=O)Nc1cccc(F)c1 (stereo not given) |  | active: 16.4 µM
33 | NCc1nc(-c2ccc(Cl)cc2)no1 |  | inconclusive: 20.6 µM [rising, single point]
34 | Nc1cccc(C#Cc2ccc3c(=O)c4ccccc4oc3c2)c1 | inactive: 15.3% | 
35 | COc1ccc(-c2cc(C(F)(F)F)nc(-n3cc(Cl)cn3)n2)cc1 |  | active: 23.1 µM
36 | COc1cc2ccccc2cc1C(=O)N1CCN(c2ccccn2)CC1 | inactive: -16.2% | 
37 | CCc1ccc(C(C(=O)NC2CCCC2)N(Cc2cccnc2)C(=O)c2csnn2)cc1 (stereo not given) |  | inconclusive: 0.0046 µM [cytotoxic, full curve, poor fit]
38 | CSc1cccc(NC(=O)CSc2ccccc2)c1 | inactive: -4.26% | 
39 | CCOC(=O)c1cc2nc(Nc3ccc(OC)cc3)sc2s1 | inactive: -11.9% | 
40 | CCCCn1c(=O)c(CCC(=O)OCC(=O)Nc2cc(Cl)ccc2OC)nc2ccccc21 | inactive: 16.5% | 
41 | CCc1ccc(C(=O)NC2=NC(c3ccccc3F)CC(=O)N2)cc1 (stereo not given) | inactive: 2.87% | 
42 | CN[C@@H]1[C@H](O)[C@H](NC)[C@H]2O[C@@]3(O)C(=O)C[C@@H](C)O[C@H]3O[C@@H]2[C@H]1O |  | inconclusive: 0.461 µM [rising, full curve]
43 | O=C(COC(=O)CCc1ccccc1)NCc1ccc2c(c1)OCO2 |  | inconclusive: 1.84 µM [rising, partial curve, poor fit]
44 | COc1ccc(NC(=O)Nc2ccc3c(c2)OCO3)c(C)c1 | inconclusive: 1.33% | 
45 | Cc1cc2cc(CCNC(=O)c3cccc([N+](=O)[O-])c3)c(=O)[nH]c2cc1C |  | inconclusive: 9.2 µM [cytotoxic, partial curve]
46 | CN(CC(=O)Nc1ccc(F)cc1)C(=O)COc1ccc([N+](=O)[O-])cc1Cl |  | inconclusive: 18.4 µM [cytotoxic, single point]
47 | c1ccc(COC2CCCN(Cc3nc(-c4cccs4)no3)C2)nc1 (stereo not given) |  | inconclusive: 25.9 µM [cytotoxic, single point]
48 | CCOc1ccc(S(=O)(=O)Nc2ccc3c(c2)n(C)c(=O)n3C)cc1 |  | active: 14.6 µM

Filtered by structure: those above with a nitro group on carbon (five)
Row | Structure (SMILES) | activity change, negative = cytotoxicity | Potency
14 | CCOC(=O)C(C)On1c(-c2ccc(Cl)cc2)nc2ccc([N+](=O)[O-])cc21 (stereo not given) |  | inconclusive: 20.6 µM [cytotoxic, single point]
18 | Cc1cccc(N2CCN(C(=S)c3ccc(-c4ccccc4[N+](=O)[O-])o3)CC2)c1 |  | inconclusive: 20.6 µM [cytotoxic, partial curve, poor fit]
29 | Cc1cc[n+]2cc(-c3cccc([N+](=O)[O-])c3)c(-c3cccc([N+](=O)[O-])c3)cc2c1 | inactive: -12.1% | 
45 | Cc1cc2cc(CCNC(=O)c3cccc([N+](=O)[O-])c3)c(=O)[nH]c2cc1C |  | inconclusive: 9.2 µM [cytotoxic, partial curve]
46 | CN(CC(=O)Nc1ccc(F)cc1)C(=O)COc1ccc([N+](=O)[O-])cc1Cl |  | inconclusive: 18.4 µM [cytotoxic, single point]

(more compounds)

Row | Structure (SMILES) | activity change, negative = cytotoxicity | Potency
49 | CCCCNC(=O)CSc1nc2ccccc2c(=O)n1C1CCCC1 |  | inconclusive: 2.31 µM [cytotoxic, full curve]
50 | Cc1nc2cc(C(F)(F)F)ccc2n1C1CCN(C(=O)N2CCOCC2)CC1 |  | inconclusive: 23.1 µM [cytotoxic, single point]
51 | Cc1cc([N+](=O)[O-])c2[nH]c(C(=O)N/N=C/c3ccccc3C(=O)O)c(-c3ccccc3)c2c1 |  | active: 4.11 µM
52 | Cc1ccc(S(=O)(=O)N(CC(=O)NCc2ccncc2)Cc2ccccc2F)cc1 |  | inconclusive: 7.31 µM [cytotoxic, partial curve]
53 | COc1ccc(CCN2C(=O)CC(Cc3ccc(Br)cc3)C2=O)cc1OC (stereo not given) |  | inconclusive: 16.4 µM [cytotoxic, partial curve, poor fit]
54 | CCCN1CCN(CCCNC(=O)c2c(C)nn(-c3ccc(F)cc3)c2-n2cccc2)CC1 |  | inconclusive: 10.3 µM [cytotoxic, partial curve, poor fit]
55 | O=C(O)C1=CCC=CC1C(=O)O (stereo not given) | inactive: 15.6% | 
56 | CCOc1ccc(OCC)c(NS(=O)(=O)c2ccc3c(c2)CCN3C(=O)C2CCC2)c1 |  | inconclusive: 25.9 µM [cytotoxic, single point]
57 | COC(C[C@@H]1O[C@@H]1[C@H](O)[C@@H](C)OCc1ccccc1)OC |  | inconclusive: 23.1 µM [rising, partial curve, poor fit]
58 | CC(CC(=O)Nc1ccc(Cl)c(S(=O)(=O)N2CCOCC2)c1)c1ccccc1 (stereo not given) |  | active: 2.06 µM
59 | CCOC(=O)c1ccc(NC(=O)Cn2nnc(-c3ccc(F)cc3)n2)cc1 | inactive: 0% | 
60 | CC(=O)Nc1ccc(NC(=O)C(C)OC(=O)c2ccccc2NS(=O)(=O)c2cccs2)cc1 (stereo not given) | inactive: 8.58% | 
61 | OC1CCN(c2cc(-c3ccccc3)nc3cc(-c4ccc(F)cc4)nn23)CC1 | inactive: 12.3% | 
62 | COc1c(/C=N/Nc2nc(N3CCCCC3)nc(N3CCCCC3)n2)cccc1[N+](=O)[O-] |  | inconclusive: 10.3 µM [cytotoxic, partial curve, poor fit]
63 | COc1ccccc1/C=C/C1NC(=O)NC(C)=C1C(=O)OC(C)C (stereo not given) |  | inconclusive: 5.17 µM [cytotoxic, partial curve, poor fit]
64 | CCN1CCN(c2nnc(-c3ccc(F)cc3)c3ccccc23)CC1 | inactive: -22.4% | 
65 | O=C(c1cccc(COc2cccc3ccccc23)c1)N1CCCC1 |  | inconclusive: 29.1 µM [cytotoxic, single point]
66 | Cc1ccn2cc(-c3ccc(C)c(NS(=O)(=O)c4ccc(Cl)cc4)c3)nc2c1 | inactive: 2.91% | 
67 | Cc1nnc(N2CCCC(C(=O)NCCc3ccccc3)C2)c2nn(-c3ccccc3)c(C)c12 (stereo not given) | inactive: -3.38% | 
68 | c1ccc(-c2cc3c(N4CCN(c5ccccc5)CC4)ncnc3s2)cc1 |  | inconclusive: 16.4 µM [cytotoxic, single point]
69 | CC1(C)CN=c2s/c(=C\c3ccc(Cl)cc3)c(=O)n2C1 |  | inconclusive: 7.31 µM [rising, partial curve]
70 | COc1ccc(CN(C)C(=O)C23CC4CC(CC(C4)C2)C3)c(OC)c1 |  | inconclusive: 16.4 µM [cytotoxic, partial curve]
